Not every detail of the peptide structures is certain; ends, links or a residue may be inferred. Where a SMILES comes first, the peptide text is derived from it. [ ]: non-standard residue; d: D form.
Legend:
[1] = test system: senescent and non-senescent WI-38 cells; assay: XTT viability assay on Doxorubicin induced senescent and non-senescent WI-38 fibroblasts; format: cell-based, human; set-up: SI50 value from viability curves: unit not given beside the values
Experimental: WI-38 cells (ATCC #CCL-75, a diploid primary human fibroblast adherent cell line derived from fetal lung tissue) were treated with a chemotherapy agent, 100 NM Doxorubicin twice every other day to induce senescence. […] Later these cells were used for experiments comparing them to their non-Doxorubicin (non-senescent) treated counterparts. Senescent and non-senescent WI-38 fibroblasts were plated for XTT viability assays. 7000 senescent (obtained as described above) and 2000 non-senescent WI-38 fibroblasts were plated in 96-well plates incubated. The cells were treated with mock (PBS) or the Senolytic Peptide (SEQ ID NO: 11) at total doses ranging from 0 to 100 pM. The mock and peptide treatments were carried out for 3 consecutive days (24, 48 and 72 hours) after plating. After treatment period, the cells were incubated for 7 days until XTT-based viability was analyzed according to the manufacturer's instructions. […] The Senolytic Peptide (SEQ ID NO: 11) was ordered from Chinese Peptide Company with TFA removal.
(§1) WI-38 cells (ATCC #CCL-75, a diploid primary human fibroblast adherent cell line derived from fetal lung tissue) and IMR90 cells (ATCC #CCL-186, a diploid primary human fibroblast adherent cell line derived from fetal lung tissue) were treated with a chemotherapy agent, 100 NM Doxorubicin twice every other day to induce senescence. […] Later these cells were used for experiments comparing them to their non-Doxorubicin (non-senescent) treated counterparts. Senescent and non-senescent WI-38/IMR90 fibroblasts were plated for XTT viability assays. 7000 senescent (obtained as described above) and 2000 non-senescent WI-38/IMR90 fibroblasts were plated in 96-well plates incubated. The cells were treated with mock (PBS) or the Senolytic Peptide (SEQ ID NO: 12) at total doses ranging from 0 to 100 pM. The mock and peptide treatments were carried out for 3 consecutive days (24, 48 and 72 hours) after plating. After treatment period, the cells were incubated for 7 days until XTT-based viability was analyzed according to the manufacturer's instructions. […]

[2] = test system: Doxorubicin induced renal senescence; assay: Doxorubicin induced chemotoxicity / renal senescence in mice; format: in vivo; details: male BALB/c mice; doxorubicin 8 mg/kg i.p. twice; peptide 3x10 mg/kg every other day
Experimental: This study was performed in strict accordance with the protocol approved by the TUBITAK-MAM Animal Ethics Committee. All the mice used in this study were of a BALB/c background at 8-12 weeks of age. All mice were kept in group housing until the start of the experiment after which they were placed in separate cages (4 mice per cage). Only male mice were used throughout the study. Where feasible, littermates were used. All mice were randomly assigned to experimental group. Mice were fed ad libidum. Initial weights of the mice were recorded. Mice were divided into three groups (A-No Treatment, B-Doxorubicin Treatment+Mock Treatment, C-Doxorubicin Treatment+Senolytic Peptide Treatment). Doxorubicin induced chemotoxicity was used for the induction of renal senescence in mice. Mice in Group B and C were intraperitoneally administered with doxorubicin (8 mg/kg) twice (at 0 and 10th day). Weights of the mice were recorded three times a week. 24 days after 2nd Doxorubicin treatment, PBS (mock Treatment) was administered intravenously to Group B and Senolytic Peptide (SEQ ID NO: 12) (3×10 mg/kg) was administered to Group C in three days (every other day) (FIG. 17A). The mice health, activity and appearance were monitored and they were sacrificed 14 days later. Gross pathology and pathology of the mice analysed. […]

[3] = test system: senescent and non-senescent IMR90 cells; assay: XTT viability assay on Doxorubicin induced senescent and non-senescent IMR90 fibroblasts; format: cell-based, human
Experimental: as §1, with “IMR-90” for “WI-38 cells (ATCC #CCL-75, a diploid primary human fibroblast adherent cell line derived from fetal lung tissue) and IMR90”, “with” for “with a chemotherapy agent,”, “for senescence induction.” for “to induce senescence.”, “IMR90” for “WI-38/IMR90”, “Peptide(s)” for “Peptide (SEQ ID NO: 12)”
WI-38 cells (ATCC #CCL-75, a diploid primary human fibroblast adherent cell line derived from fetal lung tissue) and IMR90 cells (ATCC #CCL-186, a diploid primary human fibroblast adherent cell line derived from fetal lung tissue) were treated with a chemotherapy agent, 100 NM Doxorubicin twice every other day to induce senescence. […] After treatment period, the cells were incubated for 7 days until XTT-based viability was analyzed according to the manufacturer's instructions. […]

CC(C)C[C@H](NC(=O)[C@@H](NC(=O)[C@H](CC(C)C)NC(=O)[C@H](CCCNC(=N)N)NC(=O)[C@H](CCCCN)NC(=O)[C@H](CCCNC(=N)N)NC(=O)[C@@H]1CCCN1C(=O)[C@H](C)NC(=O)[C@H](CCCNC(=N)N)NC(=O)[C@H](CCCNC(=N)N)NC(=O)[C@H](CCCNC(=N)N)NC(=O)[C@H](CCCNC(=N)N)NC(=O)[C@H](CCCNC(=N)N)NC(=O)[C@H](CCCNC(=N)N)NC(=O)[C@H](CCCNC(=N)N)NC(=O)[C@H](CCCNC(=N)N)NC(=O)[C@H](CCCNC(=N)N)NC(=O)[C@H](CCCNC(=N)N)NC(=O)[C@H](CCCNC(=N)N)NC(=O)[C@H](CCCNC(=N)N)NC(=O)[C@H](CCCNC(=N)N)NC(=O)[C@H](CCCNC(=N)N)NC(=O)CNC(=O)[C@H](Cc1c[nH]c2ccccc12)NC(=O)[C@H](C)NC(=O)[C@H](CCCNC(=N)N)NC(=O)[C@H](CCCNC(=N)N)NC(=O)[C@H](CCCNC(=N)N)NC(=O)[C@H](CCCNC(=N)N)NC(=O)CNC(=O)CNC(=O)[C@H](CCCCN)NC(=O)[C@H](CCCNC(=N)N)NC(=O)[C@@H]1CCCN1C(=O)[C@H](N)CCCNC(=N)N)[C@@H](C)O)C(=O)O [SEQ ID NO: 11, dRPRKGGRRRR AWGRRRRRRR RRRRRRRAPR KRLTL] (H-[dR]PRKGGRRRRAWGRRRRRRRRRRRRRRAPRKRLTL-OH)
effect on viability of senescent versus non-senescent cells (XTT) ([1]; WI-38, senescence by 100 NM Doxorubicin, total doses 0 to 100 pM on 3 consecutive days, XTT after 7 days): selectively decreased the viability of senescent cells but not non-senescent cells
SI50 value from viability curves ([1]; WI-38 cells, senescent and non-senescent): 4.9
senolytic effect compared with FoxO4-DRI (viability curves of senescent cells) ([1]; senescent WI-38 cells): superior to FoxO4-DRI
Doxorubicin induced alopecia [2]: reversal of alopecia
effect on viability of senescent versus non-senescent cells (XTT) ([3]; IMR90, senescence by 100 NM Doxorubicin, total doses 0 to 100 pM on 3 consecutive days, XTT after 7 days): selectively decreased the viability of senescent cells but not non-senescent cells
senolytic effect compared with FoxO4-DRI (viability curves of senescent cells) ([3]; senescent IMR90 cells): superior to FoxO4-DRI

Source: US20200255489A1, “Novel Senolytic Peptides” (priority 2017, published 2020)
